According to publication PMC9847679, “The anti-breast cancer stem cell properties of gold(I)-non-steroidal anti-inflammatory drug complexes” (Chemical Science, 2022):

Tested on: HMLER-shEcad cells
Test: Cellular uptake and fractionation (ICP-MS gold content)
Assay type: cell-based, human
Settings: 0.25 μM for 24 h, fractionation

For `COc1ccc2c(c1)c(CC(=O)[O][Au][PH](c1ccccc1)(c1ccccc1)c1ccccc1)c(C)n2C(=O)c1ccc(Cl)cc1` [complex 1], the “internalised gold detected in the cytoplasm” value was 80%.
